The values that follow come from article doi:10.1101/2021.06.22.449398.

These are yes or no findings as the source states them, for the method shown. Binding seen in cells or lysates may run through a third protein. Some results given as binding are weak or reduced against the parent protein; the word gives no strength.

The experiment addresses GFP-tagged short isoform of zinc finger antiviral protein (GFP-ZAP-S) (human), Q7Z2W4. The experiment can be described thus: co-IP. Particulars: remark: other sources report otherwise.

B1: KHNYN (endogenous), O15037 1-678 (protein)
chain: MPTWGARPASPDRFAVSAEAENKVREQQPHVERIFSVGVSVLPKDCPDNPHIWLQLEGPKENASRAKEYLKGLCSPELQDEIHYPPKLHCIFLGAQGFFLDCLAWSTSAHLVPRAPGSLMISGLTEAFVMAQSRVEELAERLSWDFTPGPSSGASQCTGVLRDFSALLQSPGDAHREALLQLPLAVQEELLSLVQEASSGQGPGALASWEGRSSALLGAQCQGVRAPPSDGRESLDTGSMGPGDCRGARGDTYAVEKEGGKQGGPREMDWGWKELPGEEAWEREVALRPQSVGGGARESAPLKGKALGKEEIALGGGGFCVHREPPGAHGSCHRAAQSRGASLLQRLHNGNASPPRVPSPPPAPEPPWHCGDRGDCGDRGDVGDRGDKQQGMARGRGPQWKRGARGGNLVTGTQRFKEALQDPFTLCLANVPGQPDLRHIVIDGSNVAMVHGLQHYFSSRGIAIAVQYFWDRGHRDITVFVPQWRFSKDAKVRESHFLQKLYSLSLLSLTPSRVMDGKRISSYDDRFMVKLAEETDGIIVSNDQFRDLAEESEKWMAIIRERLLPFTFVGNLFMVPDDPLGRNGPTLDEFLKKPARTQGSSKAQHPSRGFAEHGKQQQGREEEKGSGGIRKTRETERLRRQLLEVFWGQDHKVDFILQREPYCRDINQLSEALLSLNF
In the case of B1, the binding entry was “binds”.
